These are yes or no findings as the source states them, for the method shown. Some results given as binding are weak or reduced against the parent protein; the word gives no strength.
Target: human IL-13 (human, UniProt P35225 35-146, biotinylated on the Biacore chip)
Experiment: IL-13 Biacore

Chains of the proteins cited; added tags and fusions are not shown. Residues count along the entry.
UniProt P35225, residues 35-146: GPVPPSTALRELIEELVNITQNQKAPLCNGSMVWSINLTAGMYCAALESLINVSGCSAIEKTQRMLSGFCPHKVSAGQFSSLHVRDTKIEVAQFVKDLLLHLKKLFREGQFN

binding: binds
B1: DOM9-112-210-ASTKGPS-DOM10-416 (bispecific antibody)
chain: EVQLLESGGGLVQPGGSLRLSCAASGFTFRNFGMGWVRQAPGKGLEWVSWIISSGTETYYADSVKGRFTISRDNSKNTLYLQMNSLRAEDTAVYYCAKSLGRFDYWGQGTLVTVSSASTKGPSEVQLLESGGGLVQPGGSLRLSCAASGFTFKGSEMDWVRQAPGKGLEWVSTISADGRETYYADSVKGRFTISRDNSKNTLYLQMNSLRAEDTAVYYCAKSYTSFDYWGQGTLVTVSS
notes: in-line fusion, from pDOM5

— US20090060916A1 (published 2009)
